Experimental data: US20050130151

The sequences below were run on Nova (KH-type RNA binding protein) (assay: EMSA). Settings: 100 nM Nova, no shift; purified recombinant protein; label: 32P-UTP.
“GAGCGGCUGCGGUGUGGAAGGAGUGGCUGGGUUGCGCACCUUGGCUUC [sc1]”: no binding.

The sequences below were run on FMRP (full length, iso7) (Homo sapiens) (assay: filter binding). Settings: Li+ replacing K+ abrogates binding; purified recombinant protein; label: 32P-UTP.
“GAGCGGCUGCGGUGUGGAAGGAGUGGCUGGGUUGCGCACCUUGGCUUC [sc1]”: no binding.

Same assay, conditions: Li+ replacing K+; purified recombinant protein; label: 32P-UTP
“GGGGGGUGAUUGGAAGGGAGGGAGGUG [Semaphorin 3F 3'UTR site]”: no binding. “UCGCGGCGCUGGGAGAGGGCGGAGGGGGAGGCGG [MAP1B 5'UTR site]”: no binding. “GACGAGCGCAGGGAGGAGGAGCAGGAGAGGCAG [Mint coding site]”: no binding. “GGGGAGGCAGGAGGAGGCCGAGG [Guanine nucleotide exchange factor (KIAA0763) 3'UTR site]”: no binding. “AGAGCGUGGAGGUGUGGAAGGAGUGGCUGCUCU [ID3 3'UTR site]”: no binding. “UGGCUCGUUGGUUGGGGUGGGUGGCCA [Potassium channel Kv3.1 5'UTR site]”: no binding. “UGUCUGGCAGAGGAAAGGGUGGAAAGGGU [Histone H4 coding site]”: no binding. “CCCUUCUAGGGGAGGCGGGUGGGGGAG [GT334/TMEM1/EHOC-1 site 1 3'UTR]”: no binding. “GGCUACUUUGGGGAGGUGUGGGAAGGCCU [Srm tyrosine kinase coding site]”: no binding. “GUUGGGUUGAGGGUGGGAAGGAAGGUAG [Arginine vasopressin receptor V1a 3'UTR site]”: no binding.

Same assay, conditions: weaker than sc1; SEQ assignment by order; purified recombinant protein; label: 32P-UTP
AAGGGUAGGAUGGGAUGG [sc2]: binds. AAGGUAGGGUGGUUGG [sc6]: binds. GAGGAGUUGGAAGGAUGGG [sc5]: binds. GUGGGUGGUUGGGUGG [sc4]: binds. AAGGUAGGGUGGUUGG [sc3]: binds.

Each sequence was assayed on FMRP KH1/KH2 double Ile-to-Asn mutant (full length) I304N plus equivalent KH1 Ile to Asn (Homo sapiens) (assay: filter binding). Settings: nearly as well as wild-type FMRP; purified recombinant protein; protein details: C-terminal His, baculovirus; label: 32P-UTP.
“GAGCGGCUGCGGUGUGGAAGGAGUGGCUGGGUUGCGCACCUUGGCUUC [sc1]”: binds.

For part of these data: No signal at the amounts used counts as a negative. Construct, isoform or probe ends are uncertain for at least one entry.
